Reference: patent US8716473B2, “Substituted benzotriazines and quinoxalines as inhibitors of P7OS6 kinase” (Sentinel Oncology Limited, priority 2009, dated 2014)
Some results were stated once for a whole list of compounds, not compound by compound.

The chains behind the UniProt entries cited, without tags or fusion partners. Where a name states a change or a piece, a line headed by the entry shows the natural chain unless it says otherwise.
UniProt P23443: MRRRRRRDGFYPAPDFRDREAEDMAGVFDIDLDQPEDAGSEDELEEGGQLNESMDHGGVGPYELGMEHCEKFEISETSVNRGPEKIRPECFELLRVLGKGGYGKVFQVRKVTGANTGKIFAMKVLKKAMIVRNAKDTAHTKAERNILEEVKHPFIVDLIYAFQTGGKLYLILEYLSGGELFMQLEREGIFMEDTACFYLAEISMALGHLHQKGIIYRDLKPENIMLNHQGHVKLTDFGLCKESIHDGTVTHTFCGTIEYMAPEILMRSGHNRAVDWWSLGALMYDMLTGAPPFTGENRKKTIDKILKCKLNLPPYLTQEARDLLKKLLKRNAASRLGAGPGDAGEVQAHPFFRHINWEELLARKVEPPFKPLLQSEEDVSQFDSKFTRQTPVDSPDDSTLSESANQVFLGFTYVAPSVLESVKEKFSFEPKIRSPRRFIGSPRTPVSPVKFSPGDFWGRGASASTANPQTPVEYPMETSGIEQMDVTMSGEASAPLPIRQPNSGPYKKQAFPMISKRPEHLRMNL

Target: p70S6K (h) (Homo sapiens, UniProt P23443)
Experiment: Determination of p70S6 inhibitory activity (radiometric 33P-ATP filter assay)
Assay type: biochemical
Details: 40 min at room temperature, read-out: IC50 against P70S6 kinase
Experimental: The ability of compounds of the invention to inhibit P70S6 kinase was determined using the protocol below.
• 20 mM MOPS, 1 mM EDTA, 0.01% Brij-35, 5% Glycerol, 0.1% b-mercaptoethanol, 1 mg/mL BSA Method: • p70S6K (h)
In a final reaction volume of 25 μL, p70S6K (h) (5-10 mU) is incubated with 8 mM MOPS pH 7.0, 0.2 mM EDTA, 100 μM KKRNRTLTV, 10 mM Mg acetate and [γ-33P-ATP] (specific activity approx. 500 cpm/pmol, concentration as required). The reaction is initiated by the addition of the MgATP mix. After incubation for 40 minutes at room temperature, the reaction is stopped by the addition of 5 μL of a 3% phosphoric acid solution. 10 μL of the reaction mixture is then spotted onto a P30 filtermat and washed three times for 5 minutes in 75 mM phosphoric acid and once in methanol prior to drying and scintillation counting.

Work on “Benzyl-[6-(1H-pyrazol-4-yl)-quinoxalin-2-yl]-amine [Example 1]” yielded an IC50 of less than 1000 nM.
